The record followed here is PubChem BioAssay AID2685 (National Center for Advancing Translational Sciences (NCATS), 2010).

The test can be described thus: qHTS Assay for Lipid Storage Modulators in Drosophila S3 Cells.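 For cell number change: cells counted by Cell Tracker Red CMTPX staining in the red channel.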 Conditions: BODIPY lipid droplet fluorescence, 18-24 h; for cell number change: measured here: cell count max response, cells fed with added oleic acid. An outline of the steps:
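Drosophila S3 cells loaded with oleic acid (400 uM, as added) and compounds at several concentrations; lipid droplets imaged by 488-nm laser-scanning cytometry, 500–530 nm intensity and object ratio to cell channel. Percent activity normalized to 20 uM Triacsin C.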
For orientation: Quantitative high-throughput screening tests each substance at several concentrations.

Where [1] appears, read: measured here: cell number channel AC50, cells fed with added oleic acid.
[2] abbreviates: measured here: lipid fluorescence (Fed channel) AC50, cells fed with added oleic acid.

Each structure is given as a SMILES string. Some of the results follow. These are further read-outs of the screen, such as a control signal, another cell line or another target. No call is given for them. Most of these compounds were active or inconclusive in the main read-out, so they are no random draw. The note in brackets gives the kind of curve behind each potency; many fits are weak.

As to `CCC(=O)Nc1ccc(C(=O)CSc2nnc(-c3ccc(O)cc3)n2CC2CCCO2)cc1` (stereo not drawn), the cell number change was found to be 13.4%.
Consider `O=C(CN1C(=O)c2ccccc2S1(=O)=O)Nc1ccccn1`, for which the cell number change is 8.03%.
Same read-out and setting: the value for `CCOC(=O)C1CCN(C(=O)CCN2C(=O)C3C4C=CC(C4)C3C2=O)CC1` (stereo not drawn) was 19.4%.
Regarding `CCC(=O)NC(=S)Nc1ccc(-c2nc3ccccc3s2)cc1`, the AC50 by setting is: under setting [1], 1.3 µM [rising, partial curve]; under setting [2], 0.58 µM [rising, single point].
With `COc1cc(OC)cc(C(=O)NCCOC23CC4CC(CC(C4)C2)C3)c1`, the cell number change was -47.2%. The AC50 under setting [1] was 9.2 µM [falling, partial curve, poor fit]. In addition, under setting [2], the AC50 is 7.31 µM [falling, partial curve, poor fit].
For `Cc1cc(NC(=O)CSc2nc3c(C)c(C)ccc3cc2C)no1`, the AC50 was 0.184 µM [rising, full curve, poor fit] under setting [1] and 1.16 µM [rising, single point] under setting [2].
For the molecule `COc1ccc(/C(N)=N/OC(=O)c2c(-c3ccccc3Cl)noc2C)cc1OC`, the cell number change is -7.51%.
Take `CC(Sc1nnnn1C)C(=O)NC(=O)NC1CCCCC1` (stereo not drawn): the cell number change is 1.85%.
Regarding `CSc1nnc2c3ccccc3n(Cc3ccccc3)c2n1`, the cell number change was -13.5%.
As to `COc1ccc(CCNC(=O)c2cc3c(=O)n(C)c4ccccc4c3n2C)cc1OC`, the cell number change was -12.6%. The AC50 under setting [2] was 29.1 µM [falling, single point].
For the molecule `NC(=O)c1cc(S(=O)(=O)N2CCCC2)ccc1OCCOc1ccccc1`, the cell number change came out at 7.38%. Besides, the AC50 under setting [2] was 6.51 µM [rising, single point].
For the molecule `CC(C(Sc1ccccc1N)c1ccccc1)[N+](=O)[O-]` (stereo not drawn), the cell number change was -52.1%. Further, the AC50 under setting [1] is 11.6 µM [falling, partial curve]. In addition, the concentration at half-maximal activity (AC50) under setting [2] is 18.4 µM [falling, partial curve].
For `O=C(O)Cn1cc(C(=S)N2CCOCC2)c2ccccc21`, under setting [2], the AC50 was 0.259 µM [falling, partial curve, poor fit].
Regarding `CCOC(=O)c1c(C)n(C)c2ccc(OCC(O)Cn3c(C)nc4ccccc43)cc12` (stereo not drawn), the AC50 runs as follows: under setting [1], 2.31 µM [rising, partial curve]; under setting [2], 2.31 µM [rising, partial curve].
With `CSc1ccccc1NC(=O)COc1ccc(S(=O)(=O)N2CCCC2)cc1`, the AC50 under setting [2] is 0.58 µM [falling, single point].
`CC(=O)Nc1cccc(/C(C)=N/NC(=O)c2c(-c3ccccc3Cl)noc2C)c1`: the cell number change is -64.9%. Also, under setting [1], the AC50 is 18.4 µM [falling, single point]. In addition, the AC50 under setting [2] was 18.4 µM [falling, single point].
For the molecule `CN(CCCC1CCCC1)C(=O)c1cc(COc2c(F)cccc2F)on1`, the AC50 under setting [2] was 29.1 µM [falling, partial curve].
As to `COc1cc(C(=O)NNC(=O)c2cc(S(=O)(=O)N(C)C)ccc2N2CCCC2)cc(OC)c1OC`, the cell number change was 9.64%.
Take `CCC(CC)c1nnc(NC(=O)c2nc3nc(C)cc(C)n3n2)s1`: the cell number change is -74.9%. In addition, under setting [1], the AC50 was 20.6 µM [falling, single point]. For the same molecule, the AC50 under setting [2] is 9.2 µM [falling, partial curve].
Consider `CC(=O)c1cccc(NC(=O)N2CCCC2C(=O)NCc2ccc3c(c2)OCO3)c1` (stereo not drawn), for which the cell number change worked out at 4.14%. The AC50 under setting [1] is 2.59 µM [falling, single point]. The AC50 under setting [2] is 3.26 µM [falling, single point].
Regarding `COc1cc(/C=C(\C#N)C(=O)Nc2cccc(C(=O)O)c2)ccc1OCc1ccc(F)cc1`, the cell number change was -22.2%.
Take `Cc1cc(OC(=O)c2cccc([N+](=O)[O-])c2)c(C)cc1CN1CCOCC1`: the cell number change is -36.2%. Under setting [1], the AC50 is 32.6 µM [falling, single point]. For the same molecule, under setting [2], the AC50 was 1.03 µM [falling, single point].
As for `COc1ccc(NC(=O)c2cc(C(C)C)on2)c(OC)c1`, the AC50 under setting [1] was 3.66 µM [rising, partial curve, poor fit].
Turning to `CN1C2C=C(N(CCc3ccccc3)C(=O)c3ccc(Cl)cc3)CC1CC2` (stereo not drawn), the cell number change is 26.6%. Also, under setting [2], the AC50 is 0.146 µM [rising, full curve, poor fit].
On to `O=C(OCC1OC(n2ccc(=O)[nH]c2=O)C(O)C1OC(=O)c1ccccc1)c1ccccc1` (stereo not drawn), for which the AC50 under setting [2] is 0.82 µM [falling, single point].
Consider `C=CCN1C(=O)C2C(C(=O)NC3CCCC3)C3C=CC2(O3)C1C(=O)NC1CCCC1` (stereo not drawn), for which the cell number change was 27.8%. Under setting [1], the AC50 is 4.11 µM [rising, full curve, poor fit].
For the molecule `Cc1cc(C)c(NC(=O)CSc2nnc(CNC(=O)c3ccccc3F)o2)c(C)c1`, the cell number change is 3.4%. Also, under setting [2], the AC50 is 29.1 µM [rising, single point].
Turning to `Cc1ccc(-n2c(Cc3cccn3C)nnc2SCC(=O)N2CCc3ccccc32)cc1`, the cell number change was determined as 6.69%.
As to `CN1CCN(C(=O)c2cc(=O)c3cc(Cl)cc(Cl)c3o2)CC1`, the cell number change stood at 18.3%.
Regarding `Cn1c(Cc2cccs2)n[nH]c1=S`, the cell number change is 11%. The AC50 under setting [2] was 0.146 µM [falling, full curve, poor fit].
With `COc1ccc(OCc2nnc(SCC(=O)N3CCCC3)o2)cc1`, the cell number change was determined as 20%.
For `Cn1c(=O)c2c(nc(Br)n2CCCc2ccccc2)n(C)c1=O`, the cell number change was -40.8%. Moreover, the AC50 under setting [1] was 18.4 µM [falling, partial curve]. In addition, under setting [2], the AC50 was 16.4 µM [falling, partial curve].
As for `CSc1ccc(-c2nc(CSCC(=O)N3CCOCC3)c(C)o2)cc1`, the cell number change is -2.93%. For the same molecule, the AC50 under setting [1] is 0.146 µM [falling, full curve, poor fit].
Regarding `O=C(C1=C(O)C(=O)N(c2nccs2)C1c1ccccc1)c1cc2ccccc2o1` (stereo not drawn), the cell number change turned out to be 22.2%.
Regarding `Cc1ccccc1-n1c(SCC(=O)N/N=C/C=C/c2ccccc2[N+](=O)[O-])nc2ccccc2c1=O`, the cell number change was -5.97%.
Consider `CS(=O)(=O)Cc1ccc(C(=O)NCC2(N3CCCCC3)CCCCC2)cc1`, for which the cell number change amounted to 25%.
On to `Cc1nc2ccc(-c3nc4ccccc4o3)cc2[nH]1`, for which the cell number change was -16.1%. In addition, under setting [2], the AC50 is 0.82 µM [falling, full curve, poor fit].
Consider `CC(=O)NCc1ccc(C(=O)CSc2nnc(-c3ccncc3)n2Cc2ccccc2)o1`, for which the cell number change came to 28.1%. Further, the AC50 under setting [2] is 13 µM [rising, partial curve, poor fit].
As for `O=c1c2ccccc2oc2nc(-c3ccco3)n(Cc3ccccc3)c(=O)c12`, the AC50 under setting [1] was 0.92 µM [rising, partial curve] and the AC50 under setting [2] was 0.411 µM [rising, partial curve].
Turning to `CN(C)S(=O)(=O)Oc1ccc(C(=O)Nc2ccc([N+](=O)[O-])cc2)cc1`, the cell number change came out at 18.7%. Also, the AC50 under setting [2] is 0.651 µM [rising, single point].

As a reminder, the AC50 is the concentration giving half of the maximal activity seen.
